# Some of the results follow. Repeats are few or missing, and single values can be far off.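 Imaging used 1,536-well plates; nuclei positive for cleaved PARP by antibody were divided by total DNA-stained nuclei to yield the apoptosis fraction. Doses for screening kept most cells viable, and cell lines differ markedly in resting and induced cleaved-PARP levels.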
# Test system: WM3526
# Assay: cleaved PARP positive nuclei fraction relative to DMSO control; melanoma cells; higher = more apoptosis
# Conditions: library dose: low library concentration; 72 h
row,SMILES,cleaved PARP positive nuclei fraction [%]
1,"O=C(O)[C@@H]1[O][Sb](=[O])([O][Sb]2(=[O])[O][C@H]([C@H](O)CO)[C@H](O)[C@H](C(=O)O)[O]2)[O][C@H]([C@H](O)CO)[C@@H]1O (stereo partly drawn) [stibogluconate] + O=C(O)c1ccc(-c2c[nH]c3ncc(-c4ccccc4)cc23)cc1C1CCCC1 [GSK650394] (first compound 2 µM, partner dose 0.16 µM)",293
2,"Cn1c(=O)n(-c2ccc(C(C)(C)C#N)cc2)c2c3cc(-c4cnc5ccccc5c4)ccc3ncc21 + CCCCCCCCCCCC1=C(O)C(=O)C=C(O)C1=O [Embelin] (first compound 0.004 µM, partner dose 1.2 µM)",177
3,"CN1CCN(c2ccc3nc(-c4c(N)c5c(F)cccc5[nH]c4=O)[nH]c3c2)CC1 [Dovitinib] + NCC(=O)Nc1ccc(-n2nc(C(F)(F)F)cc2-c2ccc3c(ccc4ccccc43)c2)cc1 [OSU03012] (first compound 0.1 µM, partner dose 1 µM)",311
4,"C=C(c1ccc(C(=O)O)cc1)c1cc2c(cc1C)C(C)(C)CCC2(C)C [Bexarotene] + Cc1cc([N+](=O)[O-])ccc1NS(=O)(=O)c1cc(Cl)ccc1Cl [FH535] (first compound 2 µM, partner dose 1 µM)",128
5,"Cc1cc(Nc2cc(N3CCN(C)CC3)nc(/C=C/c3ccccc3)n2)n[nH]1 + COC(=O)c1sccc1S(=O)(=O)Nc1ccc(Nc2ccccc2)cc1OC [GSK0660] (first compound 0.04 µM, partner dose 1 µM)",146
6,"CC(C)C[C@H](NC(=O)[C@H](Cc1ccccc1)NC(=O)c1cnccn1)B(O)O [Bortezomib] + Cc1cc([N+](=O)[O-])ccc1NS(=O)(=O)c1cc(Cl)ccc1Cl [FH535] (first compound 0.001 µM, partner dose 1 µM)",92.6
7,"CC(C)C[C@H](NC(=O)[C@H](Cc1ccccc1)NC(=O)c1cnccn1)B(O)O [Bortezomib] + O=C(CCCCCCC(=O)Nc1ccccc1)NO [vorinostat] (first compound 0.001 µM, partner dose 0.08 µM)",63.6
8,"Nc1ncn([C@H]2C[C@H](O)[C@@H](CO)O2)c(=O)n1 [decitabine] + COc1ccc2c(c1)CCC1C2CCC2(C)C(NCCCCCCN3C(=O)C=CC3=O)CCC12 [U73122] (first compound 0.1 µM, partner dose 0.4 µM)",72.4

# Source: the supplement of paper PMC4604168 (melanoma cell lines)
